Experimental data taken from PubChem BioAssay AID2685 (National Center for Advancing Translational Sciences (NCATS), 2010).
This is one part of the list. The main result of the screen is listed elsewhere. These columns were measured beside it and carry no call. Most of these compounds were active or inconclusive in the main read-out, so they are no random draw. Words in brackets tell the shape of the fitted curve; partial curves, single points and poor fits give uncertain potencies.

Experiment: qHTS Assay for Lipid Storage Modulators in Drosophila S3 Cells;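 as to cell number change: cells counted by Cell Tracker Red CMTPX staining in the red channel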
Details: BODIPY lipid droplet fluorescence, 18-24 h; for cell number change: measured here: cell count max response, cells fed with added oleic acid
Outline: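 Laser-scanning cytometry quantifies lipid droplet accumulation (500–530 nm total intensity; droplet/cell object ratio) in oleic acid-fed (400 uM added) Drosophila S3 cells treated with a concentration series. 20 uM Triacsin C defined 100% inhibition.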

[1] = measured here: cell number channel AC50, cells fed with added oleic acid
[2] = measured here: lipid fluorescence (Fed channel) AC50, cells fed with added oleic acid

SMILES | cell number change [%] | AC50 [1] | AC50 [2]
COc1cccc(OCCSc2nc3ccccc3c(=O)[nH]2)c1 | 69.1 | 29.1 µM [rising, single point] | 
Cc1cccc(NC(=O)/C(C#N)=C/c2ccc[nH]2)c1C | 15.5 |  | 29.1 µM [rising, single point]
Cc1cccc(C(=O)Nc2ccn(C)n2)c1 |  |  | 13 µM [rising, single point]
COC(=O)/C=C1\N/C(=N/c2nc(C)c3cc(OC)ccc3n2)NC1=O | -4.05 |  | 
CCOC(=O)[C@H]1[C@H]2COc3cc(OC)ccc3[C@@H]2N2C(=O)c3ccc(C)cc3NC(=O)[C@@]12C | -47.5 | 29.1 µM [falling, single point] | 6.51 µM [falling, single point]
CCOC(=O)C(Cc1ccccc1)NC(=O)CCc1c(C)nc2nc(C)nn2c1C (stereo not given) | 51.9 | 14.6 µM [rising, partial curve, poor fit] | 
COc1ccc2[nH]c(=O)c(CN(C(C)=O)C3CCCCC3)cc2c1 | 39.6 | 10.3 µM [rising, single point] | 
Cn1c(SCC(=O)Nc2ccc(Cl)cc2)nc(O)cc1=O | -15.8 |  | 1.03 µM [falling, single point]
Cc1ccc(OCC(=O)N(Cc2ccco2)c2c(N)n(Cc3ccccc3)c(=O)[nH]c2=O)cc1C | -7.77 |  | 0.0517 µM [falling, partial curve, poor fit]
Cc1cc(C)c2nc(-c3ccccn3)cc(C(=O)NCc3cc(C)n(C)n3)c2c1 | 115 | 29.1 µM [rising, single point] | 
CCOC(=O)c1sc2nccc(N(C)C)c2c1N=CNOC |  | 0.00461 µM [rising, full curve, poor fit] | 
Cc1nc(N2CCCCC2)c2sc(=S)n(C)c2n1 |  |  | 1.64 µM [rising, partial curve]
N=c1c2c3c(sc2nc2n1CCCCC2)CCCCC3 | -0.329 |  | 0.0731 µM [falling, full curve, poor fit]
O=C(CNC(=O)c1ccc(Br)cc1)OCC(=O)c1ccccc1 | 24 |  | 
O=C(NCC1CCN(c2ccc(S(=O)(=O)N3CCOCC3)cc2)CC1)c1ccc(Cl)cc1 |  | 2.59 µM [rising, partial curve] | 0.517 µM [rising, single point]
Cc1cccc(N(Cc2ccccc2)C(=O)c2ccccc2S(C)(=O)=O)c1 | -8.21 |  | 
CCOC(=O)c1sc(NC(=O)CC)nc1C |  | 0.58 µM [rising, single point] | 
CCOc1cc(/C=N/n2c(C)nc3ccccc3c2=O)ccc1O | 1.21 |  | 0.411 µM [rising, full curve, poor fit]

Single records (already shown).
CCOC(=O)c1sc2nccc(N(C)C)c2c1N=CNOC reads AC50 [1]: 0.00461 µM [rising, full curve, poor fit]
COc1cccc(OCCSc2nc3ccccc3c(=O)[nH]2)c1 reads cell number change [%]: 69.1; AC50 [1]: 29.1 µM [rising, single point]
